Changes are numbered by the printed parent chain. Numbers in names are those of the source. No constants are given. Whether binding was seen depends on the method and setting. For some of these results: Binding seen in cells or lysates may run through a third protein. Some entries that bind do so weakly or less than the wild type. Sequences can lack the tags named with a protein. Each block holds one binder with its values, some of them ahead of it.
Legend:
[1] = target: T1, C-terminally Strep-Tag II (STII)-tagged FDXR (human) (UniProt P22570); experiment: co-IP; Strep-Tactin magnetic beads on lysates (PBS, 1% IGEPAL, protease and phosphatase inhibitors) of HEK293T stably expressing C-terminally STII-tagged DLD or FDXR and transiently transfected with FDX1 constructs; 30 min in the cold; immunoblot
T1 sequence: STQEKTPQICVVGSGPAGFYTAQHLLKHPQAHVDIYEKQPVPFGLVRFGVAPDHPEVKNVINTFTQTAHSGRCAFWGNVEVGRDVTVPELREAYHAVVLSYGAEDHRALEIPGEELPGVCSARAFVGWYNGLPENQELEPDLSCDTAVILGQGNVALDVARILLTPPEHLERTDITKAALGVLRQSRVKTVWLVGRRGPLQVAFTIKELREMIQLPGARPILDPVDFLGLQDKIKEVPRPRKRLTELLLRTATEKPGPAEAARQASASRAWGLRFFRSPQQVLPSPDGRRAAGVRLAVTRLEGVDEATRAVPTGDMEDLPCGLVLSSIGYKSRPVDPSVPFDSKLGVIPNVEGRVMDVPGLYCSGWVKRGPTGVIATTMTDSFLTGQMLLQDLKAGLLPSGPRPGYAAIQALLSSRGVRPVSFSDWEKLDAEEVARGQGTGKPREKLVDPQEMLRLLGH

[2] = target: T2, DLD (aa 36-509), purified recombinant (human) (UniProt P09622); experiment: Temperature-Related Intensity Change (TRIC) fluorescence; FDX1 with DLD in vitro; which partner was labelled and the concentrations are not told; both purified
T2 sequence: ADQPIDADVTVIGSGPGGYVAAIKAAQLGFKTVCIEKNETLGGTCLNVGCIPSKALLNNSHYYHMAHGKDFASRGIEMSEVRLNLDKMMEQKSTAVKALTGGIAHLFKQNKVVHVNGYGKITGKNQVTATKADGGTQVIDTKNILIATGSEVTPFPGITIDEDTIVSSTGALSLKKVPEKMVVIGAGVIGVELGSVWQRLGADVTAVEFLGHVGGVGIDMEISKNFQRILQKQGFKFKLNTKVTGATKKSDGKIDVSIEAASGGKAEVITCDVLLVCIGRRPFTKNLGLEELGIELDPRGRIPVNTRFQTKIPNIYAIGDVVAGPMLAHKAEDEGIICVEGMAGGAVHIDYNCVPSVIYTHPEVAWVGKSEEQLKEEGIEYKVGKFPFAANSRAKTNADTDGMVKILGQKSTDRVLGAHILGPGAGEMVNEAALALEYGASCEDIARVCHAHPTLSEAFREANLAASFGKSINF

binding [1]: binds
B1: WT FDX1, full length, pMT025 (no tag), expressed in HEK293T (protein, UniProt P10109 61-184)
chain: SSSEDKITVHFINRDGETLTTKGKVGDSLLDVVVENNLDIDGFGACEGTLACSTCHLIFEDHIYEKLDAITDEENDMLDLAYGLTDRSRLGCQICLTKSMDNMTVRVPETVADARQSIDVGKTS

binding [1]: binds
B2: FDX1 D139R (aa 61-184), N-terminal hexa-histidine tag (domain or fragment, human, UniProt P10109 61-184, looked up)
chain: B1 chain with D79R
notes: ferredoxin 1 (FDX1), human, residues 61-184, lacking the mitochondrial transit peptide; pET28a; Carries a reconstituted Fe-S cluster; Labelled with Red-Tris-NTA dye in the LIAS assay only; source: E. coli BL21 (DE3) carrying pDB1282, purified, iron-sulfur cluster reconstituted; not shown: His6, N-terminal, kept

binding [2]: no binding
B3: FDX1 WT (aa 61-184), N-terminal hexa-histidine tag (domain or fragment, human, UniProt P10109 61-184, looked up)
chain: B1 chain
notes: ferredoxin 1 (FDX1), human, residues 61-184, lacking the mitochondrial transit peptide; pET28a; Carries a reconstituted Fe-S cluster; In the FDX1-LIAS TRIC assay it was labelled on the His tag with the Red-Tris-NTA 2nd generation dye; in the FDXR assay it was the unlabelled ligand; also called ferredoxin 1; source: E. coli BL21 (DE3) carrying pDB1282, purified, iron-sulfur cluster reconstituted; …

binding [1]: binds
B4: FDX1 D136R (aa 61-184), N-terminal hexa-histidine tag (domain or fragment, human, UniProt P10109 61-184, looked up)
chain: B1 chain with D76R
notes: as for B2

— publication PMC12855868, “Deep Mutational Scanning of FDX1 Identifies Key Structural Determinants of Lipoylation and Cuproptosis” (Nature Communications, 2025)
